PMC5992127
These are yes or no findings as the source states them, for the method shown. In cells and extracts the contact can be indirect. Some binding calls cover weakened binding; strength is not graded here. Where a sequence is shown, tags or fusion partners need not be part of it.

Target: T1, GST-WNT5A (UniProt P41221)
T1 sequence: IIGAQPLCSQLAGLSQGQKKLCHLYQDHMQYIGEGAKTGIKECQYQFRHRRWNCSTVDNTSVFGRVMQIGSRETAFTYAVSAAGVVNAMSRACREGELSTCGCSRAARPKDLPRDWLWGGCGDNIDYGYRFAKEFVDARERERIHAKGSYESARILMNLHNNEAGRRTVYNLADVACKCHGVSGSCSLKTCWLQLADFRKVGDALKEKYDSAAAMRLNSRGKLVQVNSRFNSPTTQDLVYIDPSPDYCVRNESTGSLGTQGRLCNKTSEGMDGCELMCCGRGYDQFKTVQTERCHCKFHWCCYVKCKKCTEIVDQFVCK
Experiment: pull-down; GST-WNT5A incubated with liver TIC lysate, GST pulldown, western blot with FZD6 antibody; only the target purified

B1: FZD6 (receptor, UniProt O60353 19-706)
chain: HSLFTCEPITVPRCMKMAYNMTFFPNLMGHYDQSIAAVEMEHFLPLANLECSPNIETFLCKAFVPTCIEQIHVVPPCRKLCEKVYSDCKKLIDTFGIRWPEELECDRLQYCDETVPVTFDPHTEFLGPQKKTEQVQRDIGFWCPRHLKTSGGQGYKFLGIDQCAPPCPNMYFKSDELEFAKSFIGTVSIFCLCATLFTFLTFLIDVRRFRYPERPIIYYSVCYSIVSLMYFIGFLLGDSTACNKADEKLELGDTVVLGSQNKACTVLFMLLYFFTMAGTVWWVILTITWFLAAGRKWSCEAIEQKAVWFHAVAWGTPGFLTVMLLAMNKVEGDNISGVCFVGLYDLDASRYFVLLPLCLCVFVGLSLLLAGIISLNHVRQVIQHDGRNQEKLKKFMIRIGVFSGLYLVPLVTLLGCYVYEQVNRITWEITWVSDHCRQYHIPCPYQAKAKARPELALFMIKYLMTLIVGISAVFWVGSKKTCTEWAGFFKRNRKRDPISESRRVLQESCEFFLKHNSKVKHKKKHYKPSSHKLKVISKSMGTSTGATANHGTSAVAITSHDYLGQETLTEIQTSPETSMREVKADGASTPRLREQDCGEPASPAASISRLSGEQVDGKGQAGSVSESARSEGRISPKSDITDTGLAQSNNLQVPSSSEPSSLKGSTSLLVHPVSGVRKEQGGGCHSDT
binding: binds
